Test results taken from article PMC4978524.

Sequences of proteins named here, by UniProt entry; tags and fusion partners are left off. A change or cut given only in a name is not applied to a line headed by its entry.
UniProt Q9V3Z6: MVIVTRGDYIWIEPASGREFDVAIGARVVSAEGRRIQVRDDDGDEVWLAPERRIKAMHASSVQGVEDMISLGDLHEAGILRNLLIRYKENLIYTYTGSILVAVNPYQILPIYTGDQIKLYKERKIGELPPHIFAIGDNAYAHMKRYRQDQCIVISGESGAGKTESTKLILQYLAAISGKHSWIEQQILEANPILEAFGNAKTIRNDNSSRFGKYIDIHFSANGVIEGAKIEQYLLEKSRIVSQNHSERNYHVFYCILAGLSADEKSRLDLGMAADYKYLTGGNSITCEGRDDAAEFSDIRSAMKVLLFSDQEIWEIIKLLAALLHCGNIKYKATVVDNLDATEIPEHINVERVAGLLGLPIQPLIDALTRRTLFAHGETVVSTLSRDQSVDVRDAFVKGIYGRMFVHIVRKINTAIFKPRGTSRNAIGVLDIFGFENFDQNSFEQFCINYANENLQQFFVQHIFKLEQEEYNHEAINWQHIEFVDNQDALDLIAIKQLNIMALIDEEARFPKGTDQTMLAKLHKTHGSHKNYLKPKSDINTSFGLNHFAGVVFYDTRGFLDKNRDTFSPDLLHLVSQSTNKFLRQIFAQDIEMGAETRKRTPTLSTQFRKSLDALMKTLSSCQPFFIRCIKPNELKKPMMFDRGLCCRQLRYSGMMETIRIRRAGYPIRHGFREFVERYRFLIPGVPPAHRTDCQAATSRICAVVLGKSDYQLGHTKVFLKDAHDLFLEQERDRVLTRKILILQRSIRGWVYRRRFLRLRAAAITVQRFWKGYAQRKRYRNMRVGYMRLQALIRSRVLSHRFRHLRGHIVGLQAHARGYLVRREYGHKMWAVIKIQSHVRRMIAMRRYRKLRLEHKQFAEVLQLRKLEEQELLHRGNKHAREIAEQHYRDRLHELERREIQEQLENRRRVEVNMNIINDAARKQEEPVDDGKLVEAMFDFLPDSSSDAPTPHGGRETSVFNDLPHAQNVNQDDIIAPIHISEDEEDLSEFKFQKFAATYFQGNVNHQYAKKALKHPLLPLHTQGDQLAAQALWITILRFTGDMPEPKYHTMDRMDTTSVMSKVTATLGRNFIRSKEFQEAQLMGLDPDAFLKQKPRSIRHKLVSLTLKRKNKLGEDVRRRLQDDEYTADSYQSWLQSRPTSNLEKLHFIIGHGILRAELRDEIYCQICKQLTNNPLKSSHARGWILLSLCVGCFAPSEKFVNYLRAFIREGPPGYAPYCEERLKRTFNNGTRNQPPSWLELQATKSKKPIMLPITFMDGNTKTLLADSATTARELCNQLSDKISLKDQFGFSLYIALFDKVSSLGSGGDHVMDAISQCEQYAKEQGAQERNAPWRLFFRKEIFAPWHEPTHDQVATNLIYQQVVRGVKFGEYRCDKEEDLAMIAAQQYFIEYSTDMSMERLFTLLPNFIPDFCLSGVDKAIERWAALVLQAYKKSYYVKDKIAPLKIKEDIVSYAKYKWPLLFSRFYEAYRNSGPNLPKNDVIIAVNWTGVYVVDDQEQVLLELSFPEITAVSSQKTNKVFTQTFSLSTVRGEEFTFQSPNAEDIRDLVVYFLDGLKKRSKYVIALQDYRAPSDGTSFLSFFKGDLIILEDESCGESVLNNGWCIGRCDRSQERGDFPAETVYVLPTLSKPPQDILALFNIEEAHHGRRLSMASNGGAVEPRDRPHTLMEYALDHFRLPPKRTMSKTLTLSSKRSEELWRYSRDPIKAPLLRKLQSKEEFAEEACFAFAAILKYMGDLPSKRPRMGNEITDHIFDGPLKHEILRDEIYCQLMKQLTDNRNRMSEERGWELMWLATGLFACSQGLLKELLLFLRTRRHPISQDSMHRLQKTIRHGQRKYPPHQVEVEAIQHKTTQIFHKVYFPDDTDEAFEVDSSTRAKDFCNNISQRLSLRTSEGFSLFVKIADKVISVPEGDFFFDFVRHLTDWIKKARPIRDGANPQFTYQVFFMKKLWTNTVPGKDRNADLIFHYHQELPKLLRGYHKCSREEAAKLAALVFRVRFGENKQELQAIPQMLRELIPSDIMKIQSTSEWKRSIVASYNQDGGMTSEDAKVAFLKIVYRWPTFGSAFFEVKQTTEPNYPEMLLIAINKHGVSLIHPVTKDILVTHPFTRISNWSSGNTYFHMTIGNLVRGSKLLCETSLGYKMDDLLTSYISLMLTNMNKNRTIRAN
UniProt Q24311: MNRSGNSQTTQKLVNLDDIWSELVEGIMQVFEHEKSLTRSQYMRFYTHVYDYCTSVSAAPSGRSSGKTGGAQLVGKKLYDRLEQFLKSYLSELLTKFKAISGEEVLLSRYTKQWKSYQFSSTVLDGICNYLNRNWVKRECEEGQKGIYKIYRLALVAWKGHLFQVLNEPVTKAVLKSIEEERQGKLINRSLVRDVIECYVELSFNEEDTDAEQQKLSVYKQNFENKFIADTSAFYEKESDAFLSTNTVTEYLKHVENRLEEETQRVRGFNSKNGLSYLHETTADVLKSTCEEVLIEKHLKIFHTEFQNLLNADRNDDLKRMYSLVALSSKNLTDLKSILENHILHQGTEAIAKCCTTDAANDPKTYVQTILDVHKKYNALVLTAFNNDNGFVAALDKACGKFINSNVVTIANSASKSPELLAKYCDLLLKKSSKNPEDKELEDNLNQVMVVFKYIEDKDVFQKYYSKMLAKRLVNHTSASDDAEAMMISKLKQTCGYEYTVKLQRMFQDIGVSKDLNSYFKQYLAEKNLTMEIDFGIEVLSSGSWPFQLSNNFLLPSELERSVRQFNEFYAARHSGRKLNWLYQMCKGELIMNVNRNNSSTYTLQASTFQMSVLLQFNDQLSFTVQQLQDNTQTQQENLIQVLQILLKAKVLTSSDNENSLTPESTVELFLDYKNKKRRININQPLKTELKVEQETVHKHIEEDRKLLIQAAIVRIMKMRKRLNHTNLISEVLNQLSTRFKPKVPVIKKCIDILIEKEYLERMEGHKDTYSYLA
UniProt Q7JQL2: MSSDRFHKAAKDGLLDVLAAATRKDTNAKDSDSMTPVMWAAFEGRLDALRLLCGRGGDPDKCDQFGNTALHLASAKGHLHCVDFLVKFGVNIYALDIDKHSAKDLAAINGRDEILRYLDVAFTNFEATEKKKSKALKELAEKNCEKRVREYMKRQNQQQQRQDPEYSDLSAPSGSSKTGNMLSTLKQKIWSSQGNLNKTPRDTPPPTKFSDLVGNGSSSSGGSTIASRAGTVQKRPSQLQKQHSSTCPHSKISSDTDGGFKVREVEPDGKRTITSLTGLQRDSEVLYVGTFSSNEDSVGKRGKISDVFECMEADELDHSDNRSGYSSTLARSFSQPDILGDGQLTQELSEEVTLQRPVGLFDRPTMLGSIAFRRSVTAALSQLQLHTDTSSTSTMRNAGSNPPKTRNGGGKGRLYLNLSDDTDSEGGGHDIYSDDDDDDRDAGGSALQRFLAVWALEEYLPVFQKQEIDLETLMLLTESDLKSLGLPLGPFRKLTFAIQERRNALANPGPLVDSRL

Columns and labels:
[1] = biological target: MyoVIIa-GFP (Drosophila Myosin VIIa, in S2 cells) (Drosophila) (UniProt Q9V3Z6); test: co-IP; S2 cells transfected with GFP-tagged and V5-tagged constructs, lysed 48 hr after transfection (Tris-HCl 25 mM pH 7.5, NaCl 150 mM, NP-40 1%), precipitated with GFP nanobody conjugated beads overnight at 4°C, western blots
[2] = biological target: Cul1-GFP (Drosophila Cullin1, in S2 cells) (Drosophila) (UniProt Q24311); test: as above

Substance: Sans-V5 (Drosophila homologue of the Usher syndrome protein Sans) (from UniProt Q7JQL2)
- binding [1]: binds
- binding [2]: binds

Results are given in words; binding and its absence hold for the method and conditions named. Binding seen in cells or lysates may run through a third protein. Binding calls can cover weak binding; strength is not graded here.
